No constants are given. Whether binding was seen depends on the method and setting. Binding seen in cells or lysates may run through a third protein. A yes stands for co-enrichment or nearness to the bait. Other partners may have been found. Where a sequence is shown, tags or fusion partners need not be part of it.
Molecular target: T1, RRAD-Flag (wild type) (human) (UniProt P55042)
T1 sequence: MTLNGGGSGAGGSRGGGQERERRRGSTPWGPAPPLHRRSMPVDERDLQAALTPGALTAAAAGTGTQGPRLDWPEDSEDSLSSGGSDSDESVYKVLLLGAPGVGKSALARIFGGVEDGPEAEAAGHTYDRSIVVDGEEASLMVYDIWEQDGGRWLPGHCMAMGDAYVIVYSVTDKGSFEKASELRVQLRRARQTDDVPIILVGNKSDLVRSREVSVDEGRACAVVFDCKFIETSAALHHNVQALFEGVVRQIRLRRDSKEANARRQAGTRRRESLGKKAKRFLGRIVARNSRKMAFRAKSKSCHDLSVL
Assay: affinity purification with mass spectrometry; RRAD-Flag precipitated from H1299-RRAD cells with anti-Flag (M2) beads, eluted with 0.1M glycine, SDS-PAGE, LC-MS/MS; H1299-con cells as control

Amino acid sequences for entries named in this document (tags omitted).
UniProt Q04206: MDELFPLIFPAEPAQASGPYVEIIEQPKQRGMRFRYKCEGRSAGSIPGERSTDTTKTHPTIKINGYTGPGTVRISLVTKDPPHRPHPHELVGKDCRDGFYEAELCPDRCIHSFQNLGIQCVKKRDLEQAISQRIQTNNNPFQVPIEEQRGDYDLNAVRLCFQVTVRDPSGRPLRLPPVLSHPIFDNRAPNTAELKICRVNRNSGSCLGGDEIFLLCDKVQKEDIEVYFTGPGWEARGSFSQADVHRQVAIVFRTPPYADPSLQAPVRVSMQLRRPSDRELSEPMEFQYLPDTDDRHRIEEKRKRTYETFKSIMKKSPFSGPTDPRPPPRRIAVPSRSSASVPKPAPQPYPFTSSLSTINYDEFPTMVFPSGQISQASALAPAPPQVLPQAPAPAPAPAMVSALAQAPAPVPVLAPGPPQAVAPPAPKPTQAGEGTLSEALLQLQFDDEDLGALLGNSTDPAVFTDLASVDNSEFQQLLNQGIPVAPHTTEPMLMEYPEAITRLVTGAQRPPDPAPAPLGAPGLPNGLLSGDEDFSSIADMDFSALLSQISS

endogenous p65 (from UniProt Q04206 1-551)
binding: binds

Source: publication PMC4558130
